# Data published in PubChem BioAssay (Tox21).
# Several values for one entry are separate records, joined by “and”; a condition that tells them apart may be missing. Equal values may be shown once. Most of the hits are listed elsewhere, so they are rarer here than in the full data. Records with an inconclusive call do not appear. Activity calls are given as the source filed them. Calls come from the whole dose curve; as a rule, active = well fitted cell-killing curve with a large enough effect in the repeat runs; inconclusive = weak or mixed curves, or effect the other way; inactive = flat fitted curve, though single readings scatter.
# Assay: cAMP Responsive Elements (CRE) small molecule antagonists, cell-based qHTS assay: qHTS cell viability counter screen (AID 2060913); note: nearly all actives have a fitted effect of over 40% in size
# Conditions: CRE-bla HEK293T viability, CellTiter-Glo luminescence, 5 h; at 92.4 µM (top of the series)
# Method in brief: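 CRE-bla HEK293T cells were seeded in assay medium with 10% dialyzed FBS, incubated 18 hrs at 37 C, then exposed to compounds plus 0.25 uM final NKH477 for 3 hrs. Viability was read by CellTiter-Glo luminescence after 30 min, in the same wells.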
# % is set by controls: 0 for no effect and ±100 for the full control effect.
row,SMILES,"viability change, negative = cytotoxic"
1,CC(C)(C)c1ccc(O)cc1,inactive: -10.6% and inactive: -7.16%
2,Oc1c(Cl)cc(Cl)cc1Cl,inactive: 0.901% and inactive: 3.94%
3,Cc1ccc(O)cc1C,inactive: 5.63% and inactive: 8.76%
4,Cc1ccc2ccccc2c1C,inactive: -1.88% and inactive: -3.1%

# Assay: cAMP Responsive Elements (CRE) small molecule agonists, cell-based qHTS assay: qHTS cell viability counter screen (AID 2060914);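 note: viability read after 3 h of compound exposure; nearly all actives have a fitted effect of over 50% in size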
# Conditions: CRE-bla HEK293T viability, CellTiter-Glo luminescence, 5 h; at 92.4 µM (top of the series)
# Description: National Center for Advancing Translational Sciences [NCATS]
# Division of Preclinical Innovation [DPI]
# U.S. Environmental Protection Agency [EPA]
# National Institutes of Environmental Health Sciences [NIEHS]
# National Toxicology Program [NTP]
# U.S. Food and Drug Administration [FDA]
# CREB (cyclic-AMP Responsive Element Binding Protein) is a cellular transcription factor. It binds to certain DNA sequences called cAMP Responsive Elements (CRE) and regulates the transcription of the genes. […] This cell line can be used to find agonists/antagonists of the cyclic AMP signaling pathway. The activation of the report gene under culture conditions can be detected by fluorescence intensity. This cell line has been used to screen the Tox21 10K compound library to identify agonists that induce oxidative stress. The cytotoxicity of the Tox21 compound library against the CRE-bla cell line was tested in parallel by measuring the cell viability using CellTiter-Glo assay (Promega, Madison, WI) in the same wells.
# Tox21 Assay Protocol Summary:
# CRE-bla Hek 293T cells were suspended in assay medium (DMEM containing 10% dialyzed FBS, 0.1 mM NEAA, 1 mM sodium pyruvate and 25 mM HEPES) and dispensed at 2,000 cells/5 uL /well into 1536-well black wall/clear bottom plates using a Multidrop Combi (ThermoFisher Scientific, Waltham, MA) dispenser. After the assay plates were incubated at 37 C/5% CO2 for 18 hrs, 23 nL of compounds dissolved in DMSO, positive controls or DMSO only was transferred to the assay plate by a pintool workstation (Kalypsys, San Diego, CA). After the plates were incubated at 37 C/5% CO2 for 3 hrs, 1 uL of LiveBLAzer B/G FRET substrate (Invitrogen, Carlsbad, CA) was added to each well using Bioraptr Flying Reagent Dispenser (FRD, Aurora Discovery, San Diego, CA). The plates were incubated at room temperature for 2 h, then fluorescence intensities were measured using an Envision plate reader (PerkinElmer, Shelton, CT) at Excitation 405nm, Emission 460nm and 530nm. The % activity was determined from the ratio of 460nm/530nm. For cell viability readout that measures cytotoxicity, 4 uL /well of CellTiter-Glo reagent was added into the assay plates using Bioraptr FRD. After 30 min incubation at room temperature, the luminescence intensity in the assay plates was measured using a ViewLux (PerkinElmer, Shelton, CT) plate reader.
row,SMILES,"activity change, negative = cytotoxicity"
1,CC(C)(C)c1ccc(O)cc1,inactive: 0.308% and inactive: -20.8%
2,Oc1c(Cl)cc(Cl)cc1Cl,inactive: 1.66% and inactive: 0.149%
3,Cc1ccc(O)cc1C,inactive: -7.25% and inactive: -5.9%
4,Cc1ccc2ccccc2c1C,inactive: 1.64% and inactive: 1.6%
5,O=[N+]([O-])c1ccccc1Cl,inactive: 15.7%
